From article PMC7762138

By UniProt entry, the sequences of proteins in these tests, tags left out. Where a name states a change or a piece, a line headed by the entry shows the natural chain unless it says otherwise.
UniProt P53634: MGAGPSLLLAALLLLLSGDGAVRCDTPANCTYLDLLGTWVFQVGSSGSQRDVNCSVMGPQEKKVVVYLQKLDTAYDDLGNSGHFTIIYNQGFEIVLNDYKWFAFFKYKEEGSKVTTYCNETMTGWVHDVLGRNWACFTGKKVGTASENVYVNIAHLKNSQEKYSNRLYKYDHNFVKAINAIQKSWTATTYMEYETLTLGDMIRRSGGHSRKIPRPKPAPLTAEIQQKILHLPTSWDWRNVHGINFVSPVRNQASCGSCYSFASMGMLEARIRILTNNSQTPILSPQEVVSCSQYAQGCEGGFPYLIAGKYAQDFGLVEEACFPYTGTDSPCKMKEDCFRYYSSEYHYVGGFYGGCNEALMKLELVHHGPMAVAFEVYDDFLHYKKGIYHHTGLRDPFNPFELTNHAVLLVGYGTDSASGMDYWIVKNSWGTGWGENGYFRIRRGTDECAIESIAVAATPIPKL

Biological target: T1, recombinant human full-length cystatin F with his-tag (human) (UniProt O76096)
T1 sequence: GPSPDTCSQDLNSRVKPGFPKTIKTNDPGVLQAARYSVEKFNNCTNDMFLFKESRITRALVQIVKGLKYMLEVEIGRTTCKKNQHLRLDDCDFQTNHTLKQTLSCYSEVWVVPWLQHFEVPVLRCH
Assay: co-IP; TALL-104 cells (50 x 10^6) incubated 4 h with 100 nM his-tagged recombinant full-length cystatin F, washed, lysed (50 mM Tris-HCl pH 7.4, 100 mM NaCl, 0.25% Triton X, protease inhibitors); anti-his-tag antibody overnight at 4 °C, Dynabeads protein A; western blot with anti-cathepsin C; untreated cells as control; only the target purified

- binding: binds
Substance: cathepsin C (from UniProt P53634) (enzyme)

No constants are given. Whether binding was seen depends on the method and setting. Binding seen in cells or lysates may run through a third protein. A result given as binding can be weak or reduced; the word gives no strength. Sequences can lack the tags named with a protein.
